The text below walks through data of paper doi:10.1101/2025.07.22.666133.

Amino acid sequences for entries named in this document (tags omitted). A change or cut given only in a name is not applied to a line headed by its entry.
UniProt P02545: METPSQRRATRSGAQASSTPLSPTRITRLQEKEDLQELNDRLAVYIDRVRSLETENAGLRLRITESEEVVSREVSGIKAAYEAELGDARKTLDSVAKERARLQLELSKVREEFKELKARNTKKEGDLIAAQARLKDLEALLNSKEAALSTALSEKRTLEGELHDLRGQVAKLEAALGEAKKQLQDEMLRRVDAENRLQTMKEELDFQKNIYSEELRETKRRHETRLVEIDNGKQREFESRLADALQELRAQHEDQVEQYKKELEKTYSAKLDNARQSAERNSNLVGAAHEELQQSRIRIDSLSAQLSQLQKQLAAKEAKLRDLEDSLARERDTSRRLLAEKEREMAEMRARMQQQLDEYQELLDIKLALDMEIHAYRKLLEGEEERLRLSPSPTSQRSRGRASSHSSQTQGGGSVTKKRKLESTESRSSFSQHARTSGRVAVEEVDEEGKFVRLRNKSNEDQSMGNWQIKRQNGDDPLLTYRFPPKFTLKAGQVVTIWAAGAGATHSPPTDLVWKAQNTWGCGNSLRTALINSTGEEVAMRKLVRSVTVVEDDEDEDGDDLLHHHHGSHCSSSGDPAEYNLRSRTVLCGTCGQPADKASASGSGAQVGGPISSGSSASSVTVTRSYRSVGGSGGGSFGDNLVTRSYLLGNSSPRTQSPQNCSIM

The target in the assay is FLAG-tagged full-length human lamin A (human) (UniProt P02545). Put plainly: co-IP.

These are yes or no findings as the source states them, for the method shown. In cells and extracts the contact can be indirect. Binding calls can cover weak binding; strength is not graded here.

B1: Filamin A-interacting protein 1-like (protein, UniProt Q6P6L0 1-1131)
chain: MRSRSSNAEGSAPKQIPRHSKFQDSIQDMKHRTHKKDPSCESEGVLPRPVSEKSHTGKGHHTEDLSRDDLLFLLSILEGELQARDEVIGILRAEKIDLALLEAQYGFVTPKKVLEALQRDAFQAKSAPWQEDIYEKPMNELDKVVEKHKESHRRILEQLLMVERSHRQTIMEMEEEKRKHKEYMKKSDEFINLLEQECERLKKLIDQETASQEKKEQEKEKRIKTLKEELTKLKSFALMVVDEQQRLTAQLALQRQKIQALTTSAKETQGKLALAEARAQEEEQKATRLEKELQTQTTEFHQNQDKIMAKLTNEDSQNRQLRQKLAALSRQIDELEETNRSLRKAEEELQDIKDKINKGEYGNSGIMDEVDELRKRVLDMEGKDEELIKMEEQCRDLNKRLEKETVQSKDFKLEVDKLSVRITALEKLEDALDKSKQECYSLKCNLEKEKMTTKQLSEELESLNARIKELEAIESRLEKTEITLKDDLTKLKTLTVMLVDERKTMSEKLKQTEDKLQSTTSQLQAEQNKVTTVTEKLIEETKRALKSKTDAEEKMYSVTKERDDLRNKLKAEEEKGHDLLSKVTILKNRLQSLEAIEKDFVKNKLNQDSSKSTAALHQENNKIKELSQEVENLKLKLKDMKAIEDDLMKTEDEYETLERRYANERDKAQFLSQELEHAKMELAKYKLAEKTESSHEQWLFRRLQEEEAKSGHLSREVDALKEKIHEYMATEDLICHLQGDHSLLQKKLNQQENRNRDLGREIENLTKELERYRHFSKSLRPSLNGRRISDPQVFSKEVQTEAADSEPPDYKSLIPLERAVINGQFYEENEDQDDDPNEEESVLSFRCSQSSSLPMNRKLWIPWMKSKEGHPQNGKIQTKSNGNFVQPGDLVLSHTPGQPLHIKVTPDHIQNTATLEITSPTTESPHSYTSTAVIPNCGTPKQRITILQNASITPIKSKSSTESLMNLEQSMSPVTMATFARAQTPESCGSVTPERTMSPIQVLAMTGSPSSPEQGCSPEPIEISAKHAIFRVSPDRQSSWQFQRSNSNSSSVITTEDNKIHIHLGSPYMQAVAGPMRPASPSAPLQDNRTQGLTNGALNKTTNKVTSSITITPTATPLPRQSQITVSNIYN
As to B1, the binding entry is “binds”.
